# Assay results as given in US20220204630A1 (SUNSHINE LAKE PHARMA, published 2022).
# Amino acid sequences for entries named in this document (tags omitted). A change or cut given only in a name is not applied to a line headed by its entry. Residues count along the entry.
# UniProt P04629: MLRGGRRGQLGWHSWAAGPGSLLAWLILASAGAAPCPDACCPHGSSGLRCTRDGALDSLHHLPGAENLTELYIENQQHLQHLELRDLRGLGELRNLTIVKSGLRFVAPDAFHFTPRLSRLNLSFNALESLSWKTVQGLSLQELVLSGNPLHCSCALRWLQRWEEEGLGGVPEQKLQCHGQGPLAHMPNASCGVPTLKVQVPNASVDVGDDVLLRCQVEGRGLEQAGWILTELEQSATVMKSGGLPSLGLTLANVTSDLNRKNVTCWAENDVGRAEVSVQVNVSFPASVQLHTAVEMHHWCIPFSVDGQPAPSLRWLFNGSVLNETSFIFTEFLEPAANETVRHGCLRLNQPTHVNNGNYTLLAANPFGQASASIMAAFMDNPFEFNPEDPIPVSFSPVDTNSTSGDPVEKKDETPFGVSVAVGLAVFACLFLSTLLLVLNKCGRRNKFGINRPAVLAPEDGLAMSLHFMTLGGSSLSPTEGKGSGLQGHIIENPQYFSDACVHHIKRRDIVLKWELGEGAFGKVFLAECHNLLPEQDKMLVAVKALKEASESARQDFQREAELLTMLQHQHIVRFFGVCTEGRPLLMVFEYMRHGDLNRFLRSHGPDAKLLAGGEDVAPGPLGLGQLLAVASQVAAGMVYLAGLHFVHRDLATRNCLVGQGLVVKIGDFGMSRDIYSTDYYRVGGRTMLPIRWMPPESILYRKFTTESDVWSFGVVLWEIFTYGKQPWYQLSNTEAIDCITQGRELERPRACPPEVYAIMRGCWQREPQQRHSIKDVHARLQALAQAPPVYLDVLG
# TrkA protein on HEK-293T-TrkA cells or NIH-3T3-TrkA cells: residues 33-796 of P04629
# TrKA receptor protein coated in ELISA (Examples 11 and 16): residues 33-423 of P04629
# UniProt Q3UFB7: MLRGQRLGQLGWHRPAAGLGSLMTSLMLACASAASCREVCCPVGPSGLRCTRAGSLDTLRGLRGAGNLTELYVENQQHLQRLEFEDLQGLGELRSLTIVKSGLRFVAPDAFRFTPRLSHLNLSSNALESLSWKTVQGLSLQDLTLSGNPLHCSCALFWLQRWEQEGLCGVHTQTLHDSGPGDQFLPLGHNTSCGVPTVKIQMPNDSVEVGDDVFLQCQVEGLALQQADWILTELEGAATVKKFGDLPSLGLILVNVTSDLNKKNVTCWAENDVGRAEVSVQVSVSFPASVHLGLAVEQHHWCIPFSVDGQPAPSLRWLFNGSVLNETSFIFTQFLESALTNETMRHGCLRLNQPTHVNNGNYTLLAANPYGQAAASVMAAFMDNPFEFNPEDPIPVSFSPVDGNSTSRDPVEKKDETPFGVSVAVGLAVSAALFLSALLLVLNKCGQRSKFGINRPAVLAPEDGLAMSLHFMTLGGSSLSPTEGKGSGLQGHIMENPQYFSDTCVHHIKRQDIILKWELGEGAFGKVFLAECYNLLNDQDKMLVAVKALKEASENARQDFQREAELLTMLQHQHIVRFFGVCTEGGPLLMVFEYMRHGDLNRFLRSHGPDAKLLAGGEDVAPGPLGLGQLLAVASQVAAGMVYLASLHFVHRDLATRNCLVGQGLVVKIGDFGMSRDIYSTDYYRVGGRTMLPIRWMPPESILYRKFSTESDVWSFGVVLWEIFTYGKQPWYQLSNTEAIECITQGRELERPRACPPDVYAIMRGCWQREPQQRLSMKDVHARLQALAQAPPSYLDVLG
# Mouse-TrKA receptor on the surface of HEK293T-Mouse-TrKA cells: residues 34-799 of Q3UFB7
# These are yes or no findings as the source states them, for the method shown. Some entries that bind do so weakly or less than the wild type.
# Key:
# [1] = target: extracellular region of TrkA protein (human) (UniProt P04629); experiment: ELISA screening of hybridoma supernatants on TrkA extracellular region
# [2] = target: extracellular region of TrkA protein (human) (UniProt P04629); experiment: competition ELISA: hybridoma supernatant against biotinylated NGF binding to the TrkA extracellular region; OD450 is the NGF signal
# [3] = target: TrkA protein on HEK-293T-TrkA cells or NIH-3T3-TrkA cells (human) (UniProt P04629); experiment: flow cytometry competition: hybridoma supernatant against biotinylated NGF binding to HEK-293T-TrkA cells; % parent is the NGF signal
# [4] = target: TrKA receptor protein coated in ELISA (Examples 11 and 16) (human) (UniProt P04629); experiment: ELISA
# [5] = target: T1, TRKA protein with a histidine tag (human, UniProt P04629 33-423, limits assumed); experiment: BLI (Fortebio Octet RED96)
# T1 construct: it is put last here only for order; also called TRKA (50 µg/ml, 75 kDa, provided by HEC Labs); not shown: histidine tag
# [6] = target: TrKA receptor protein coated in ELISA (Examples 11 and 16) (human) (UniProt P04629); experiment: ELISA, antibody titrated 0.019-20 µg/mL on TrKA
# Mouse-TrKA protein = target: T2, Mouse-TrKA protein (mouse, UniProt Q3UFB7 34-420, limits assumed); experiment: ELISA, hybridoma supernatant
# T2 construct: also called Mouse-TrKA receptor
# [7] = target: extracellular region of TrkA protein (human) (UniProt P04629); experiment: ELISA, hybridoma supernatant
# [8] = target: Mouse-TrKA protein (mouse) (UniProt Q3UFB7); experiment: ELISA
# [9] = target: Mouse-TrKA receptor on the surface of HEK293T-Mouse-TrKA cells (mouse) (UniProt Q3UFB7); experiment: flow cytometry on HEK293T-Mouse-TrKA cells
# [10] = target: Mouse-TrKA protein (mouse) (UniProt Q3UFB7); experiment: competition ELISA: antibody against biotinylated Mouse-NGF binding to Mouse-TrkA; negative control IgG4 (m31)
binding [1],binding [2],binding [3],binding [4],binding [5],binding [6],Binder,also measured
binds,binds,binds,,,,"mouse monoclonal antibody produced by hybridoma clone 2008 (antibody, V domains shown) VH: EVLLQQSGPELVKPGASMKISCKASVYSFTAYTMNWVKQSHGKNLEWIGLINPHNGGTRYNQKFKGKATLTLDKSSSTAYMDLLSLTSEDSAVYYCAISRYGSSSFYFDVWGAGTTVAVSS VL: QIVLSQSPAILSASPGEKVTMTCRASSSISYMHWYQQKPGSSPKPWISATSNLASGVPARFSGSGSGTSYSLTISGVEAEDAATYYCQQWSSNPPTFGGGTNLEIK",
,,,binds,binds,binds,"2008 chimeric antibody (antibody, human IgG4 S228P, kappa, F234A L235A, V domains shown, also called 20C8) VH: EVLLQQSGPELVKPGASMKISCKASVYSFTAYTMNWVKQSHGKNLEWIGLINPHNGGTRYNQKFKGKATLTLDKSSSTAYMDLLSLTSEDSAVYYCAISRYGSSSFYFDVWGAGTTVAVSS VL: QIVLSQSPAILSASPGEKVTMTCRASSSISYMHWYQQKPGSSPKPWISATSNLASGVPARFSGSGSGTSYSLTISGVEAEDAATYYCQQWSSNPPTFGGGTNLEIKR",
binds,binds,binds,,,,"mouse monoclonal antibody produced by hybridoma clone 22D12 (antibody, V domains shown, also called 22D12 (positive clone supernatant)) VH: EVQLQQSGPELVKPGASMKISCKASGYSITGYTMNWVKQSHGKNLEWIGLVNPYNGGTSYNQKFKGKATLTVDKSSSTAYMELLSLKSEDSAVYYCAISRYGSESWYFDVWGAGTTVTVSS VL: QIVLSQSPAILSASPGEKVTMTCRATSSVSYMYWYQQKPGSSPKPWIYATSNLASGVPARFSGSGSGTSYSLTISRVEAEDAATYYCQQWSSNPPTFGGGTKLEKK",
binds,binds,binds,,,,"mouse monoclonal antibody produced by hybridoma clone 27H3 (antibody, V domains shown, also called 27H3 (positive clone supernatant)) VH: QVQLQQSGAELMKPGASVKISCKTTGYRFSSYWIEWVKQRPGHGLEWLGEILPGRGIINYNENFRGKATFTADTSSNTAYVQLSSLTSEDSAVYFCARTDPPYFGVWGAGTTVTVSS VL: QAVVTQESALTTSPGETVTLTCRSSTGAVTISNYANWVQEKPDHLFTGLIGGTNNRPPGVPARFSGSLIGDKAALTITGAQTEDEAIYFCVLWYSNHWVFGGGTKLTVL",binding (Mouse-TrKA protein): binds; binding [7]: binds
,,,binds,binds,binds,"27H3 chimeric antibody (antibody, human IgG4 S228P, kappa, F234A L235A, V domains shown, expressed in CHO cells) VH: QVQLQQSGAELMKPGASVKISCKTTGYRFSSYWIEWVKQRPGHGLEWLGEILPGRGIINYNENFRGKATFTADTSSNTAYVQLSSLTSEDSAVYFCARTDPPYFGVWGAGTTVTVSS VL: QAVVTQESALTTSPGETVTLTCRSSTGAVTISNYANWVQEKPDHLFTGLIGGTNNRPPGVPARFSGSLIGDKAALTITGAQTEDEAIYFCVLWYSNHWVFGGGTKLTVLR",
binds,binds,binds,,,,"mouse monoclonal antibody produced by hybridoma clone 4H4 (antibody, V domains shown, also called 4H4 (positive clone supernatant)) VH: EVQLQQSGPELVKPGASMKISCKASGYSFTGYTMNWVKQSHGKNLEWIGLINPYNGGTRYNQKFKGKATLTVDKSSSTAYMELLSLTSEDSAVYYCASSSYRNDGNWYFDVWGAGTTVTVSS VL: DIVMTQSPAIMSASPGEKVTMTCSASSSVSYMHWYQQKSGTSPKRWIYDTSKLASGVPARFSGSGSGTSYSLTISSMETEDAATYYCQQWSSNPPTFGGGTKLELK",
binds,binds,binds,,,,"mouse monoclonal antibody produced by hybridoma clone 15D4 (antibody, V domains shown, also called 15D4 (positive clone supernatant)) VH: QVQLQQSGAELMKPGASVKISCKATGYTFSSYWIEWVKQRPGHGLEWLGEFLPRSGKTNYNEEFRGKATFTADTSSNTAYMQLSSLTSEDSAVYYCARTDPPYFGVWGAGTMVAVSS VL: QIVLTQSPPIMSASPGEKVTMTCSASSNISYMHWYQQKSGTSPKRWIYDTSKLASGVPARFSGSGSGTSYSLTISSMEAEDAATYYCQQWSSVPLTFGAGTKLEIK",binding (Mouse-TrKA protein): binds; binding [7]: binds
,,,binds,binds,binds,"4H4 chimeric antibody (antibody, human IgG4 S228P, kappa, F234A L235A, V domains shown, expressed in CHO cells) VH: EVQLQQSGPELVKPGASMKISCKASGYSFTGYTMNWVKQSHGKNLEWIGLINPYNGGTRYNQKFKGKATLTVDKSSSTAYMELLSLTSEDSAVYYCASSSYRNDGNWYFDVWGAGTTVTVSS VL: DIVMTQSPAIMSASPGEKVTMTCSASSSVSYMHWYQQKSGTSPKRWIYDTSKLASGVPARFSGSGSGTSYSLTISSMETEDAATYYCQQWSSNPPTFGGGTKLELKR",
binds,binds,binds,,,,"mouse monoclonal antibody produced by hybridoma clone 23E12 (antibody, V domains shown, also called 23E12 (positive clone supernatant)) VH: QVQLQQSGAELVRPGTSVKISCKASGYAFTNYWLGWMKQRPGHGLEWIGDFYPRTGNTFYNENFKGKVTLTADKSSNTAYMQLSSLTSEDSAVYLCARAGTGFDYWGQGTTLTVSS VL: SIVMTQSPKSMSMSVGERVTLSCKASENVGGYVSWYQQKPDQSPKLLIYGASSRHTGVPDRFTGSGSETDFTLTISSVQAEDLAAYHCGQNYIYPFTFGGGTKLEIK",binding (Mouse-TrKA protein): binds; binding [7]: binds
,,,binds,binds,binds,"23E12 chimeric antibody (antibody, human IgG4 S228P, kappa, F234A L235A, V domains shown, expressed in CHO cells) VH: QVQLQQSGAELVRPGTSVKISCKASGYAFTNYWLGWMKQRPGHGLEWIGDFYPRTGNTFYNENFKGKVTLTADKSSNTAYMQLSSLTSEDSAVYLCARAGTGFDYWGQGTTLTVSS VL: SIVMTQSPKSMSMSVGERVTLSCKASENVGGYVSWYQQKPDQSPKLLIYGASSRHTGVPDRFTGSGSETDFTLTISSVQAEDLAAYHCGQNYIYPFTFGGGTKLEIKR",binding [8]: binds; binding [9]: binds; binding [10]: binds
binds,binds,binds,,,,"mouse monoclonal antibody produced by hybridoma clone 21E5 (antibody, V domains shown, also called 21E5 (positive clone supernatant)) VH: QVQLQQSGAELMKPGASMKISCKATGYTFSTYWIEWVKQRPGHGLEWIGENLPGRHITNYNEKFKGKATFTADTSSNTAYMQLSSLTSEDSAVYYCARGRGTYYFDYWGQGTPLTVSS VL: DIVMTQAAFSTPVTLGTSASISCRSSQSLLHSNGITYLYWYLQKPGQSPQLLIYQMSNLASGVPDRFSSSGSGTDFTLRISRVEAEDVGVYYCAQNLEFPFTFGSGTKLEIK",binding (Mouse-TrKA protein): binds; binding [7]: binds
,,,binds,binds,binds,"21E5 chimeric antibody (antibody, human IgG4 S228P, kappa, F234A L235A, V domains shown, expressed in CHO cells) VH: QVQLQQSGAELMKPGASMKISCKATGYTFSTYWIEWVKQRPGHGLEWIGENLPGRHITNYNEKFKGKATFTADTSSNTAYMQLSSLTSEDSAVYYCARGRGTYYFDYWGQGTPLTVSS VL: DIVMTQAAFSTPVTLGTSASISCRSSQSLLHSNGITYLYWYLQKPGQSPQLLIYQMSNLASGVPDRFSSSGSGTDFTLRISRVEAEDVGVYYCAQNLEFPFTFGSGTKLEIKR",binding [8]: binds; binding [10]: binds
binds,binds,binds,,,,"mouse monoclonal antibody produced by hybridoma clone 1B9 (antibody, V domains shown, also called 1B9 (positive clone supernatant)) VH: QVHLQQSGAELMKPGASVKISCKATGYTFNIYWIDWVKQRPGHGLEWIGEILPGSGNTHYNENFKGKATMTADTSSNTAYMQLTSLTSEDSAVYYCARTDGRGYFDYWGQGTTLTVSS VL: DIVLTQSPASLVVSLGQRATISCRTSKSVSSSAYSYMHWYQQKPGQPPKVLIYLASNLESGVPARFSGSGSGTDFTLNIHPVEEEDAATYYCQHSRELPFTFGSGTKLEIK",
,,,binds,binds,binds,"1B9 chimeric antibody (antibody, human IgG4 S228P, kappa, F234A L235A, V domains shown, expressed in CHO cells) VH: QVHLQQSGAELMKPGASVKISCKATGYTFNIYWIDWVKQRPGHGLEWIGEILPGSGNTHYNENFKGKATMTADTSSNTAYMQLTSLTSEDSAVYYCARTDGRGYFDYWGQGTTLTVSS VL: DIVLTQSPASLVVSLGQRATISCRTSKSVSSSAYSYMHWYQQKPGQPPKVLIYLASNLESGVPARFSGSGSGTDFTLNIHPVEEEDAATYYCQHSRELPFTFGSGTKLEIKR",
binds,binds,binds,,,,"mouse monoclonal antibody produced by hybridoma clone 2A5 (antibody, V domains shown, also called 2A5 (positive clone supernatant)) VH: EVQLQQSGPELVKPGASMKISCKASGYSFTGYTMNWVKQSHGKNLEWIGLINPYNGGTNYNQKFKGKATLTVDKSSSTAYMELLSLTSEDSAVYYCAFSYYGSRGFYFDYWGQGTTLTVSS VL: QIVLTQSPALMSASPGEKVTMTCSATSSVSYIYWYQQKPRSSPKPWIYLTSNLASGVPARFSGSGSGTSYSLTISSMEAEDAATYYCQQWSSNPPTFGGGTKLEIK",
,,,binds,binds,binds,"2A5 chimeric antibody (antibody, human IgG4 S228P, kappa, F234A L235A, V domains shown, expressed in CHO cells) VH: EVQLQQSGPELVKPGASMKISCKASGYSFTGYTMNWVKQSHGKNLEWIGLINPYNGGTNYNQKFKGKATLTVDKSSSTAYMELLSLTSEDSAVYYCAFSYYGSRGFYFDYWGQGTTLTVSS VL: QIVLTQSPALMSASPGEKVTMTCSATSSVSYIYWYQQKPRSSPKPWIYLTSNLASGVPARFSGSGSGTSYSLTISSMEAEDAATYYCQQWSSNPPTFGGGTKLEIKR",
